This series has as its system strain ENV735. Nature of the series: MTBE degradation assays with ENV735 cells. It is filed as cell-based, Hydrogenophaga flava.

Molecules are shown by their SMILES. Some results come without the dose or concentration used. Where only a bound is given, the exact number is not on record here.

On to `COC(C)(C)C` [MTBE, methyl-tert-butyl ether], for which, for the setting “concentrations as great as”, the “MTBE concentration that ENV735 was able to degrade” value is recorded as at most 3000 mg/L. Also, the “pH optimum for MTBE degradation” value (strain ENV735) is reported as 7.0.

The record behind these values is patent US6524842B1, “Biodegradation of gasoline oxygenates” (Envirogen, Inc., priority 2000, dated 2003).
